Test results reported in patent publication US9045507B2 (UNIVERSITY OF SOUTHERN CALIFORNIA, priority 2005, dated 2015).

Experiment: general procedure: Fmoc solid-phase peptide synthesis; Rink amide resin; HOBt/DIPCDI; PyBOP/HOBt for 10a
Conditions: whole synthesis

Substance	isolated yield (scale 7.4×10^−5 mol) [%]	isolated yield (scale of the general procedure 100 mg resin, 7.4×10^−5 mol) [% yield]
DADE-Y-GPAA-NH2	33	–
DADE-pCAP-GPAA-NH2	–	20
PEPTIDE1{D.A.D.E.[pTyr].G.P.A.A.[am]}$$$$V2.0	48	–

HELM strings list residues between dots; [ac] is acetyl, [am] amide, other brackets name non-standard units.
